The list shows a part of the results.
Tests used:
Test in all cases: log2 fold change, soluble protein after heating vs DMSO (PISA); higher = thermal stabilisation; K562 lysate, 10 uM; active = over 0.2 and 3.5 SD of the protein, either way, in both replicates (recomputed)
[1] = compound: NCC(=O)Nc1ccc(-n2nc(C(F)(F)F)cc2-c2ccc3c(ccc4ccccc43)c2)cc1
Procedure, shortened: (§1)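 Thermal stability, expressed as log-two fold change relative to solvent controls, is given from duplicates. Crude K562 extract in PBS pH 7.4 with 1 mM MgCl2, at 1 mg/mL protein, was treated with 10 μM compound for 30 min and heated in aliquots for 3 min across 48°C-58°C. After pooling, adjustment to 0.5% NP-40 at 4°C and centrifugation at 21,000xg for 90 min, supernatant protein was measured by TMTpro 16plex LC-MS/MS with channel sums equalised.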

Amino acid sequences for entries named in this document (tags omitted). A change or cut given only in a name is not applied to a line headed by its entry.
UniProt Q00796: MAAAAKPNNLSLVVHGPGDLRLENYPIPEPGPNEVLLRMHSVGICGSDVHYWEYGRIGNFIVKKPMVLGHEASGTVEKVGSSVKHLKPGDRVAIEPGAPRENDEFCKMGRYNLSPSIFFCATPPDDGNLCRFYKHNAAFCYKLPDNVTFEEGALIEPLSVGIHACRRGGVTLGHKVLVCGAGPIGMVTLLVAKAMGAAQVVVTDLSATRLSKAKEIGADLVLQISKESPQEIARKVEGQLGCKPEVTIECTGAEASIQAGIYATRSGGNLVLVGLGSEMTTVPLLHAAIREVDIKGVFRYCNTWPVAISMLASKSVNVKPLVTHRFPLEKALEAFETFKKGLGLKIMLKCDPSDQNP
UniProt Q9NTJ3, whole entry, looked up: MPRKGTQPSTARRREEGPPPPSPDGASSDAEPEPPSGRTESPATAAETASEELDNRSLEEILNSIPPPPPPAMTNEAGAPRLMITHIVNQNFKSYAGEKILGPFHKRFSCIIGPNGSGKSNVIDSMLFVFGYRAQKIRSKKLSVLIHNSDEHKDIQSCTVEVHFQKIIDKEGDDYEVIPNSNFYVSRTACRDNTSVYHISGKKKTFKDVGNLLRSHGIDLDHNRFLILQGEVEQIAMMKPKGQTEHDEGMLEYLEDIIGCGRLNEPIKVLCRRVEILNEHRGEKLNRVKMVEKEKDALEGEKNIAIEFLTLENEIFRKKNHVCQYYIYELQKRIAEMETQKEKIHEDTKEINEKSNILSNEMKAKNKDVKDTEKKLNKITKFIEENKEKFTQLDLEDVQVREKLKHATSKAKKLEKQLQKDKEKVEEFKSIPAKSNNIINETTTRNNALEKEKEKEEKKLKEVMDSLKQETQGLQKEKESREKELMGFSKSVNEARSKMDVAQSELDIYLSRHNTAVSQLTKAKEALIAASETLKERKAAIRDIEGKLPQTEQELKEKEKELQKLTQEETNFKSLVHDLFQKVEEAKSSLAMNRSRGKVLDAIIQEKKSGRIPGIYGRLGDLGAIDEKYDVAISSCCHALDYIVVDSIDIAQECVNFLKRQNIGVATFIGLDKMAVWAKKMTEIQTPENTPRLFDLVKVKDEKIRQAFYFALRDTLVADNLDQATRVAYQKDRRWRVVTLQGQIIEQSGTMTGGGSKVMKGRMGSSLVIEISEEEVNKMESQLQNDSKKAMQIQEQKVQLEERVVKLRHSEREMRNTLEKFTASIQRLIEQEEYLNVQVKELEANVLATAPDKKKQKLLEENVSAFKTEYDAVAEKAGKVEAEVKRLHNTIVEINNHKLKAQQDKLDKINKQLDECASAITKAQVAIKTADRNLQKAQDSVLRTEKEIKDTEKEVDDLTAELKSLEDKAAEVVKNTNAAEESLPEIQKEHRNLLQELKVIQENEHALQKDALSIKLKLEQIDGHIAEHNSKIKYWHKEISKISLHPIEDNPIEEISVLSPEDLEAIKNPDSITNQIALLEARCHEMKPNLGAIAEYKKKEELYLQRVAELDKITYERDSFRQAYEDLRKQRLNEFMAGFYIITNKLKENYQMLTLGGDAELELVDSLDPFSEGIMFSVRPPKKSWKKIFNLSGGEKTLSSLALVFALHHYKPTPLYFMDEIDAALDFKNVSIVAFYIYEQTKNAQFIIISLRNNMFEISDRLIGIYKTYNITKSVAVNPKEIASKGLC
UniProt Q96RF0: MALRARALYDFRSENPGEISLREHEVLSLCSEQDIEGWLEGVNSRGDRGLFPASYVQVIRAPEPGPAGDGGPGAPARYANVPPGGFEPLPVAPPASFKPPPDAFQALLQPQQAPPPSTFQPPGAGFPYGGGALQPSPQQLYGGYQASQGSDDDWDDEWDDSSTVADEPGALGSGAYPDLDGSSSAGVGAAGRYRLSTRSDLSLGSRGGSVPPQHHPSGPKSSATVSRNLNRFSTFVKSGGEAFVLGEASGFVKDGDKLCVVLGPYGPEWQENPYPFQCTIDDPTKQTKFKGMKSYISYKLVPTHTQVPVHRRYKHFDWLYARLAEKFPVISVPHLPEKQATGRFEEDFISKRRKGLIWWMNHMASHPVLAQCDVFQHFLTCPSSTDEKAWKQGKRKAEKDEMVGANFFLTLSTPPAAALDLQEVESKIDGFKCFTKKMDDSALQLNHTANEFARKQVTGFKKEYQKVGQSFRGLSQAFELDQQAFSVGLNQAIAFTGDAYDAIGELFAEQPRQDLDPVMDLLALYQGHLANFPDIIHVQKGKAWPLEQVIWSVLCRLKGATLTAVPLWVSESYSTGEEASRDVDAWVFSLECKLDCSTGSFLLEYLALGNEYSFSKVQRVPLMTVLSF
UniProt Q96GM5, whole entry, looked up: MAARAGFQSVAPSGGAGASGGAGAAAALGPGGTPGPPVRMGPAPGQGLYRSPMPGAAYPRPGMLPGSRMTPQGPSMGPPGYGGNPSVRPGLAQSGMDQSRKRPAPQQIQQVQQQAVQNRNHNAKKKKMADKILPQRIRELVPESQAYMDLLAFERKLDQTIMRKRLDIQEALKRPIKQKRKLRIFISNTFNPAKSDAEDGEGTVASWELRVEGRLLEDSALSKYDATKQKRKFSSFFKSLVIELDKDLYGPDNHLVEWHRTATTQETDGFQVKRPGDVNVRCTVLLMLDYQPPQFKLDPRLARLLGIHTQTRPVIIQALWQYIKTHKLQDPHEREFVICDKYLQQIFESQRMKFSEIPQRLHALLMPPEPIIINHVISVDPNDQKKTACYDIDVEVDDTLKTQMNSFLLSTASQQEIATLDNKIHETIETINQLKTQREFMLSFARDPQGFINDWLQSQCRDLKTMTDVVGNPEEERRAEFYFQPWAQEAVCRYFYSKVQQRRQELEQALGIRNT
UniProt O60504: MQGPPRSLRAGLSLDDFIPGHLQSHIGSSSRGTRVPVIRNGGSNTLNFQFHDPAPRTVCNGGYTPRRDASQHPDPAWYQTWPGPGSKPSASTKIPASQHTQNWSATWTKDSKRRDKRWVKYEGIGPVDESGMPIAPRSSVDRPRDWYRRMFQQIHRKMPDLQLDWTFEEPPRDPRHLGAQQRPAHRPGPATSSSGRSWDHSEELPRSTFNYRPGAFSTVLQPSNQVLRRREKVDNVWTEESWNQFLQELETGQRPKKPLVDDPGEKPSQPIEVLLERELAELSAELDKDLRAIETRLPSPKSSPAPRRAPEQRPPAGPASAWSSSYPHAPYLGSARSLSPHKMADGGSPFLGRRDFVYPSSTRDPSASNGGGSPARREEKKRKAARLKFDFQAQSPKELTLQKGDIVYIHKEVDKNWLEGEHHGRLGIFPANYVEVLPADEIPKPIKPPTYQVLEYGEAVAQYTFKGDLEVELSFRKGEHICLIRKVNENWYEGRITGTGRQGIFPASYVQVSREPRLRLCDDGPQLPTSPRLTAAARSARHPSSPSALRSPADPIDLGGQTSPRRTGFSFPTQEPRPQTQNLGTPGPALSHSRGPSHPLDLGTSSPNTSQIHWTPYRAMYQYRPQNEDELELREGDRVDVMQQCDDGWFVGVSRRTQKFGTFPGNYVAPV
UniProt P09012, whole entry, looked up: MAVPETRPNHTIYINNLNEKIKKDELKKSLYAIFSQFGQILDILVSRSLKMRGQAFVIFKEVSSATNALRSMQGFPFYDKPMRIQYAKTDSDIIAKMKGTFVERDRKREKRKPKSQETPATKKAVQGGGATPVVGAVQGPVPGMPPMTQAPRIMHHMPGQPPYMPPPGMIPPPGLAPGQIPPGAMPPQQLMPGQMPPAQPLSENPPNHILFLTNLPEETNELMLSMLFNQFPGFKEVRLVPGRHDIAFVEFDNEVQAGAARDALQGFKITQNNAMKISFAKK

[2] = compound: O=C(CCCCCCC(=O)Nc1ccccc1)NO [vorinostat]
Procedure, shortened: as §1

[3] = compound: O=C(O)c1ccc2c(c1)nc(Nc1cccc(Cl)c1)c1ccncc12 [silmitasertib]
Procedure, shortened: as §1

[4] = compound: O=C1NC(=O)C(c2cnc3ccccn23)=C1c1cn2c3c(cc(F)cc13)CN(C(=O)N1CCCCC1)CC2
Procedure, shortened: as §1

[5] = compound: c1cn2cc(-c3ccc4cn[nH]c4c3)nc(Nc3ccc(N4CCOCC4)cc3)c2n1 [entospletinib]
Procedure, shortened: as §1

Target: SORD (UniProt Q00796)
- log2 fold change [1]: inactive: 0
- log2 fold change [2]: inactive: 0.126
- log2 fold change [3]: inactive: -0.013
- log2 fold change [4]: inactive: -0.019
- log2 fold change [5]: inactive: -0.003

Target: SMG1 (UniProt Q96Q15)
- log2 fold change [1]: inactive: 0.005
- log2 fold change [2]: active: -0.348
- log2 fold change [3]: inactive: 0.011
- log2 fold change [4]: inactive: -0.006
- log2 fold change [5]: inactive: -0.007

Target: SMC4 (UniProt Q9NTJ3)
- log2 fold change [1]: inactive: 0.013
- log2 fold change [2]: active: -0.296
- log2 fold change [3]: inactive: 0.011
- log2 fold change [4]: inactive: -0.015
- log2 fold change [5]: inactive: 0.009

Target: SNRPB isoform 3 (UniProt P14678)
- log2 fold change [1]: inactive: -0.029
- log2 fold change [2]: inactive: 0.126
- log2 fold change [3]: inactive: -0.031
- log2 fold change [4]: inactive: 0.02
- log2 fold change [5]: inactive: -0.007

Target: SNX18 isoform 2 (UniProt Q96RF0)
- log2 fold change [1]: inactive: -0.071
- log2 fold change [2]: inactive: -0.182
- log2 fold change [3]: inactive: -0.033
- log2 fold change [4]: inactive: 0.051
- log2 fold change [5]: inactive: -0.065

Target: SNRPN isoform 2 (UniProt P63162)
- log2 fold change [1]: inactive: -0.177
- log2 fold change [2]: inactive: 0.216
- log2 fold change [3]: inactive: -0.163
- log2 fold change [4]: inactive: -0.008
- log2 fold change [5]: inactive: 0.023

Target: SMARCD1 (UniProt Q96GM5)
- log2 fold change [1]: inactive: 0.02
- log2 fold change [2]: inactive: -0.159
- log2 fold change [3]: inactive: 0.015
- log2 fold change [4]: inactive: 0.013
- log2 fold change [5]: inactive: -0.019

Target: SORBS3 (UniProt O60504)
- log2 fold change [1]: inactive: -0.122
- log2 fold change [2]: active: -0.561
- log2 fold change [3]: inactive: 0.057
- log2 fold change [4]: inactive: 0.031
- log2 fold change [5]: inactive: 0.01

Target: SNRPA (UniProt P09012)
- log2 fold change [1]: inactive: 0.019
- log2 fold change [2]: inactive: 0.156
- log2 fold change [3]: inactive: -0.018
- log2 fold change [4]: inactive: 0.001
- log2 fold change [5]: inactive: -0.003
